Experimental data as given in paper PMC11744840.
These are yes or no findings as the source states them, for the method shown. In cells and extracts the contact can be indirect. A yes stands for co-enrichment or nearness to the bait. Other partners may have been found.

Chains of the proteins cited; added tags and fusions are not shown.
UniProt P06733: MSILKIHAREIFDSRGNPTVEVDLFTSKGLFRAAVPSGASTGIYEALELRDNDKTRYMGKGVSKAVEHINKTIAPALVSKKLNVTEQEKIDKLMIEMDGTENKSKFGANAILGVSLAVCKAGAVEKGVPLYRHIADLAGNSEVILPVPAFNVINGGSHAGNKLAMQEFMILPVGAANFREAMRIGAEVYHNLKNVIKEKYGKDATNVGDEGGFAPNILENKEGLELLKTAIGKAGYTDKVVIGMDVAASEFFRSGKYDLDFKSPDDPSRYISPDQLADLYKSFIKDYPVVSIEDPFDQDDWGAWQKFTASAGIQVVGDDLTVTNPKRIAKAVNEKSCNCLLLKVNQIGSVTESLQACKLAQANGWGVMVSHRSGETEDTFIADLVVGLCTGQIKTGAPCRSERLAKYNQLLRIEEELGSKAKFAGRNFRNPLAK
UniProt Q9UBN7: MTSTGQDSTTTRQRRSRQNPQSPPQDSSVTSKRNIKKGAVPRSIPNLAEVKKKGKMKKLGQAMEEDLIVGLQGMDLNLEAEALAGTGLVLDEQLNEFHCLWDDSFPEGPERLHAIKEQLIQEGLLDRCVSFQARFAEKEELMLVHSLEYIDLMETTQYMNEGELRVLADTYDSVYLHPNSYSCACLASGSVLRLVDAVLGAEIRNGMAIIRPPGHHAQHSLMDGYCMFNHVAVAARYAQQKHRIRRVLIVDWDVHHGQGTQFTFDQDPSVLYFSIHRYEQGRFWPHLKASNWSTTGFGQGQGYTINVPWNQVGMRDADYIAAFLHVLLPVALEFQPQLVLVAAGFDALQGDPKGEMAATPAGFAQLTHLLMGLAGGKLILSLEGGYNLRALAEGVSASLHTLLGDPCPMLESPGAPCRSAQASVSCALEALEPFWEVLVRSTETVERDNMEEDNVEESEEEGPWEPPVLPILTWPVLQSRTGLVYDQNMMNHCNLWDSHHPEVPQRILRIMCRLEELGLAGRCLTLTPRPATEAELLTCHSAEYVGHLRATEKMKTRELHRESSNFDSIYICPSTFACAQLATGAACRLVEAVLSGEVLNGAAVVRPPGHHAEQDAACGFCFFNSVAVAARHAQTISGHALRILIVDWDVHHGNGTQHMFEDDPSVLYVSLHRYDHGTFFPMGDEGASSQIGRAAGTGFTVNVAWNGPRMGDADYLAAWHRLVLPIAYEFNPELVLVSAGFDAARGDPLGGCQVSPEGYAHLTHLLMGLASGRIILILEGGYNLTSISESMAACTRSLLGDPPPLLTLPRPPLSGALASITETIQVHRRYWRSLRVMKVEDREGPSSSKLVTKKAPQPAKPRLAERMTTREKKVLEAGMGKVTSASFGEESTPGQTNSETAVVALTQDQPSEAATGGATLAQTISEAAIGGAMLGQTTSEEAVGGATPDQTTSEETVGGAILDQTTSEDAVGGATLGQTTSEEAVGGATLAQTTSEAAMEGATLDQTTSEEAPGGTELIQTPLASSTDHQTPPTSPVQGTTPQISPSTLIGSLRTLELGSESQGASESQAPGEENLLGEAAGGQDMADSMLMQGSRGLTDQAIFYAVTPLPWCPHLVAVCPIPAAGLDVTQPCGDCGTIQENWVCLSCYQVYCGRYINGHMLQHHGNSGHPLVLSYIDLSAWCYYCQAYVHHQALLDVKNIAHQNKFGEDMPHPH
UniProt P63104: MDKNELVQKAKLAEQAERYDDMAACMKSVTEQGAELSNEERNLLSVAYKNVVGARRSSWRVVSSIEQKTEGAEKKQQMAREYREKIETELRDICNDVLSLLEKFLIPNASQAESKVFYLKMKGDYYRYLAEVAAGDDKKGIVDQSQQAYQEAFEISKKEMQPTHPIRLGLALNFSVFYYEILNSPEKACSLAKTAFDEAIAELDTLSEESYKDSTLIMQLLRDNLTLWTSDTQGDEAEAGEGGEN

Experiments:
[1] = target: Enolase 1 (ENO1), endogenous in multiple myeloma cells (human (endogenous in H929)) (UniProt P06733); assay: affinity purification with mass spectrometry; co-IP mass spectrometry assay in which HDAC6 peptides were identified; the bait is not given
[2] = target: Enolase 1 (ENO1), endogenous in multiple myeloma cells (human (endogenous in H929)) (UniProt P06733); assay: affinity purification with mass spectrometry; total lysate of H929 cells, IP-ENO1 against IP-IgG, SDS-PAGE bands analysed by mass spectrometry

Row | binding [1] | binding [2] | Substance
1 | binds | – | HDAC6, endogenous in multiple myeloma cells (from UniProt Q9UBN7 1-1215) (enzyme)
2 | – | binds | YWHAZ (14-3-3ζ), endogenous in multiple myeloma cells (from UniProt P63104 1-245)
